Measurements reported in US20220204633A1 (UNIVERSIT T Z RICH, published 2022).
These are yes or no findings as the source states them, for the method shown. Some entries that bind do so weakly or less than the wild type.

The chains behind the UniProt entries cited, without tags or fusion partners. Residues count along the entry.
UniProt P19909, residues 303-497: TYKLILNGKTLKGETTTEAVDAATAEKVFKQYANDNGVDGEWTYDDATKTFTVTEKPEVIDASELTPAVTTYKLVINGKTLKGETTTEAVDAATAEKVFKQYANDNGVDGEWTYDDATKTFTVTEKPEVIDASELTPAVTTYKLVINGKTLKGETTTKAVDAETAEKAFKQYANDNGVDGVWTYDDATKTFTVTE

Molecular target: Protein G (protein G sepharose chromatography bead, Biovision) (UniProt P19909)
Test: Protein G affinity chromatography

binding: binds
B1: human IL-12Fc NHQ (Fc fusion)
chain: IWELKKDVYVVELDWYPDAPGEMVVLTCDTPEEDGITWTLDQSSEVLGSGKTLTIQVKEFGDAGQYTCHKGGEVLSHSLLLLHKKEDGIWSTDILKDQKEPKNKTFLRCEAKNYSGRFTCWWLTTISTDLTFSVKSSRGSSDPQGVTCGAATLSAERVRGDNKEYEYSVECQEDSACPAAEESLPIEVMVDAVHKLKYENYTSSFFIRDIIKPDPPKNLQLKPLKNSRQVEVSWEYPDTWSTPHSYFSLTFCVQVQGKSKREKKDRVFTDKTSATVICRKNASISVRAQDRYYSSSWSEWASVPCSGGGGSGGGGSGGGGSRNLPVATPDPGMFPCLHHSQNLLRAVSNMLQKARQTLEFYPCTSEEIDHEDITKDKTSTVEACLPLELTKNESCLNSRETSFITNGSCLASRKTSFMMALCLSSIYEDLKMYQVEFKTMNAKLLMDPKRQIFLDQNMLAVIDELMQALNFNSETVPQKSSLEEPDFYKTKIKLCILLHAFRIRAVTIDRVMSYLNASKVDKRVESKYGPPCPPCPAPEFLGGPSVFLFPPKPKDTLMNSRTPEVTCVVVDVSQEDPEVQFNWYVDGVEVHNAKTKPREEQFNSTYRVVSVLTVLHQDWLNGKEYKCKVSNKGLPSSIEKTISKAKGQPREPQVYTLPPSPEEMTKNQVSLTCLVKGFYPSDIAVEWESNGQPENNYKTTPPVLDSDGSFFLYSRLTVDKSRWQEGNVFSCSVMHEALHNQYTQKSLSLSLGK
notes: also called NHQ variant
